Read-outs that look alike come from different tables or passages of the source.
- S.S.A. (freezer storage, micronization repeated twice with subsequent freezing (Example 2)): at least 6.5 m^2/g
- S.S.A. (micronized under same conditions without being put in a freezer (comparative Example 4)): 4.6 m^2/g
- initial S.S.A. (stored in freezer at about -10 to -20° C. about 24 hours, micronized once (Example 1)): at least 5.5 m^2/g
Structure (SMILES): COC(=O)C1=C(C)NC(C)=C(C(=O)OC)C1c1ccccc1[N+](=O)[O-] [nifedipine, 1,4-dihydro-2,6-dimethyl-4-(2-nitrophenyl)-dimethyl ester]
